Assay [1] concerns the target GFP-tagged wild-type Tau (4R0N isoform) (UniProt P10636). The assay is described as follows: co-IP.
Assay [2] has the same target. As to the kind of experiment: proximity ligation.

Sequences of proteins named here, by UniProt entry; tags and fusion partners are left off. A change or cut given only in a name is not applied to a line headed by its entry. A line that says so, or that is headed by a name, gives the form on record, which may keep a tag or linker.
GFP-tagged wild-type Tau (4R0N isoform) (P10636, form named): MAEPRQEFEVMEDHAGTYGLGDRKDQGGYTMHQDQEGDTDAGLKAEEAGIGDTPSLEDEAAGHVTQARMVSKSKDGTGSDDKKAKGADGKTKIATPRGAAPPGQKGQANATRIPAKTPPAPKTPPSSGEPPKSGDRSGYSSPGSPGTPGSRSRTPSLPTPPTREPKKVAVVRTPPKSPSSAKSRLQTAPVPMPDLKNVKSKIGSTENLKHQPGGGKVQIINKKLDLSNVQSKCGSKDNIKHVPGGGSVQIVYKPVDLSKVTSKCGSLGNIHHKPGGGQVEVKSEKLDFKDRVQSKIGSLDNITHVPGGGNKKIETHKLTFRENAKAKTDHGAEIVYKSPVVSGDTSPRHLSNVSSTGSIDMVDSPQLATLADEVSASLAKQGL
UniProt O14964: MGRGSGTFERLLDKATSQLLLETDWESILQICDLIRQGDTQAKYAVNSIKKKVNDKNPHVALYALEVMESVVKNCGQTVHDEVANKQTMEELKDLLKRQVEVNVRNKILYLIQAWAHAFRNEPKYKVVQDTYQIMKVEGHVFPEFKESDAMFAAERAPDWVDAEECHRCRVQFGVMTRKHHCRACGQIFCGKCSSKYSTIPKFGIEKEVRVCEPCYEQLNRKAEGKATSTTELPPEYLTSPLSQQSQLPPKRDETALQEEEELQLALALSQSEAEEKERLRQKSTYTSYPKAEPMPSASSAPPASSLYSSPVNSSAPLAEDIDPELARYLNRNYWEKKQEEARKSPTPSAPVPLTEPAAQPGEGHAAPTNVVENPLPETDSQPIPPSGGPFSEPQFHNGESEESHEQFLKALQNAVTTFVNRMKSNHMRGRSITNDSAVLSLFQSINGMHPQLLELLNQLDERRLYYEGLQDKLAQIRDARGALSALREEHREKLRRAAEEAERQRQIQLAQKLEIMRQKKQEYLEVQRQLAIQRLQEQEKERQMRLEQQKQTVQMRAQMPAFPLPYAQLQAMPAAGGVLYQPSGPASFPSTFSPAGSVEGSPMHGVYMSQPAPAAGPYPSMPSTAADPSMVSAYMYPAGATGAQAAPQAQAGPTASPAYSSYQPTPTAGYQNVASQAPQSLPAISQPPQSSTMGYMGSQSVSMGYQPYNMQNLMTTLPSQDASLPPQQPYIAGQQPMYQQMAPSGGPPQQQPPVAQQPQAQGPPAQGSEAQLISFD

Results are given in words; binding and its absence hold for the method and conditions named. In cells and extracts the contact can be indirect. Some binding calls cover weakened binding; strength is not graded here.

Consider FLAG-Hrs (from UniProt O14964 1-777), for which the binding entry in assay [1] is given as “binds”.

On to “mCh-tagged Hrs (from UniProt O14964 1-777)”, for which the binding entry in assay [2] was “binds”.

These data come from paper doi:10.1101/352724.
